According to doi:10.1101/2021.10.11.463901:
No constants are given. Whether binding was seen depends on the method and setting. Binding seen in cells or lysates may run through a third protein. Some entries that bind do so weakly or less than the wild type. Where a sequence is shown, tags or fusion partners need not be part of it.

Amino acid sequences for entries named in this document (tags omitted).
UniProt Q86U44, whole entry: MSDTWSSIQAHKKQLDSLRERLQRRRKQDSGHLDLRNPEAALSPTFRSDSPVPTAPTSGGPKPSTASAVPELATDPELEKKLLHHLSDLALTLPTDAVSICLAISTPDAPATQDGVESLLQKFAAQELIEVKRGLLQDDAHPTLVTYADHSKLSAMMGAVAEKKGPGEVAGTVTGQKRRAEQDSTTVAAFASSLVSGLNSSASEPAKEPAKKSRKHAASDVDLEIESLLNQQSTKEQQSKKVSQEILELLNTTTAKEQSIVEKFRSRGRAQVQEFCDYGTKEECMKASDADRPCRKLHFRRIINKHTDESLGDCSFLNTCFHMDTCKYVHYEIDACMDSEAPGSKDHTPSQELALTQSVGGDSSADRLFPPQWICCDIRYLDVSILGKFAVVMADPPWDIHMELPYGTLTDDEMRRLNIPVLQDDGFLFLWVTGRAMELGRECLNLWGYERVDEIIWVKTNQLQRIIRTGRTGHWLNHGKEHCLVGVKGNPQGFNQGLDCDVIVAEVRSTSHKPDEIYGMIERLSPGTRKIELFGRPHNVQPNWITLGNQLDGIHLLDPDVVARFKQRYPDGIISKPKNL

Legend:
[1] = biological target: T1, Flag-tagged SRSF7 (serine/arginine-rich splicing factor 7), full length (UniProt Q16629); assay: co-IP
T1 sequence: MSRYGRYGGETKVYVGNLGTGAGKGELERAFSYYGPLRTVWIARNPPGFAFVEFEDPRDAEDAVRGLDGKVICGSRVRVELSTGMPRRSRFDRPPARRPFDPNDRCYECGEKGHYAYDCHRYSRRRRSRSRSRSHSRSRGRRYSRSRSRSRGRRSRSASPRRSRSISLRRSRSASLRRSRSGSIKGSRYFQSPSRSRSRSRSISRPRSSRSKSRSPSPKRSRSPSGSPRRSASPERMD

[2] = biological target: T2, Flag-tagged SRSF7 (in 293T cells) (UniProt Q16629); assay: co-IP
T2 sequence: T1 sequence

Substance	binding [1]	binding [2]
endogenous METTL3 (U87MG cells) (from UniProt Q86U44 1-580)	binds	
HA-tagged METTL3 (from UniProt Q86U44 1-580)	binds	
endogenous METTL3 (293T cells) (from UniProt Q86U44 1-580)		binds
